This passage reports binding results from article PMC3923860.

Chains of the proteins cited; added tags and fusions are not shown.
UniProt P07305: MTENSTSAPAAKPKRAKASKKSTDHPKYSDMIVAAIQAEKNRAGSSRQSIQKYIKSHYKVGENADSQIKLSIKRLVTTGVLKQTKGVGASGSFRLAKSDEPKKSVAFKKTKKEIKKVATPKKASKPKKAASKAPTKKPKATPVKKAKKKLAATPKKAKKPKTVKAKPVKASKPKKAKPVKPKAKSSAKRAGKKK

This assay has as its target recombinant human histone H1^o (human) (UniProt P07305). Briefly: cross-linking; dimethyl suberimidate (1/10 volume of 10 mg/ml) added to H1, HMGB1 or 1:1 H1/HMGB1 mixtures, proteins ~1 µM, 0.05-0.15 M NaCl, 10 mM sodium phosphate pH 7.5, 24°C, different times; 1 mM DTT for reduced HMGB1; SDS/15%-PAGE, silver stain; both purified.

No constants are given. Whether binding was seen depends on the method and setting. Some results given as binding are weak or reduced against the parent protein; the word gives no strength.

As for “recombinant human histone H1^o (from UniProt P07305 1-194) (other; other documents disagree on this pair)”, the binding result is given as “binds”.
